# From PubChem BioAssay AID651561 (Sanford-Burnham Center for Chemical Genomics, 2012)
# Only a part is listed here, and it is no random draw. Calls of active or inactive are those of the source. Cut-off read from the data, not from the text of the source: active = IC50 below about 20 µM; inactive = the rest.
# Experiment: blockers of mitochondrial swelling via MPTP – biochemical, absorbance, uHTS hits, dose response (AID 651561)
# Conditions: isolated mitochondria swelling
smiles,measurement,value
CNCCCC12CCC(c3ccccc31)c1ccccc12,IC50,active: 4.28 µM
